Measured values as given in the supplement of paper PMC4604168 (melanoma cell lines).
The list shows a part of the results. Single values are uncertain, as repeats are few or missing.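 The apoptosis fraction was the count of cleaved-PARP antibody-stained nuclei relative to all DNA-stained nuclei, imaged in 1,536-well plates. Screening doses were set so most cells survived, and baseline and induced cleaved-PARP levels vary greatly across cell lines.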

Key:
Assay in all cases: cleaved PARP positive nuclei fraction relative to DMSO control; melanoma cells; higher = more apoptosis
Conditions in all cases: library dose: low library concentration; 72 h
WM115 = tested on: WM115
WM1716 = tested on: WM1716
WM1745 = tested on: WM1745
WM3526 = tested on: WM3526
WM3619 = tested on: WM3619
WM451Lu = tested on: WM451Lu

| Structure (SMILES) | cleaved PARP positive nuclei fraction (WM115) [%] | cleaved PARP positive nuclei fraction (WM1716) [%] | cleaved PARP positive nuclei fraction (WM1745) [%] | cleaved PARP positive nuclei fraction (WM3526) [%] | cleaved PARP positive nuclei fraction (WM3619) [%] | cleaved PARP positive nuclei fraction (WM451Lu) [%] |
| --- | --- | --- | --- | --- | --- | --- |
| CC[C@]1(O)C[C@H]2CN(CCc3c([nH]c4ccccc34)[C@@](C(=O)OC)(c3cc4c(cc3OC)N(C=O)[C@H]3[C@@](O)(C(=O)OC)[C@H](OC(C)=O)[C@]5(CC)C=CCN6CC[C@]43[C@@H]65)C2)C1 [vincristine] + C[As](C)SC[C@H](NC(=O)CC[C@H](N)C(=O)O)C(=O)NCC(=O)O [Darinaparsin] (first compound 0.0001 µM, partner dose 0.4 µM) | 1570 | 767 | 111 | 74.1 | 518 | 221 |
| N.N.[Cl][Pt][Cl] [cisplatin] + C[C@@H]1CCN(C(=O)CC#N)C[C@@H]1N(C)c1ncnc2[nH]ccc12 [CP690550] (first compound 1.6 µM, partner dose 1 µM) | 48.3 | 88.2 | 93.3 | 62.7 | 102 | 76.9 |
| Cn1cncc1[C@@](N)(c1ccc(Cl)cc1)c1ccc2c(c1)c(-c1cccc(Cl)c1)cc(=O)n2C [tipifarnib] + C/C(O)=C(\C#N)C(=O)Nc1cc(Br)ccc1Br [LFM-A13] (first compound 0.01 µM, partner dose 2 µM) | 48.4 | 152 | 88.7 | 285 | 132 | 64.8 |
| COc1cc(N2CCC(N3CCN(C)CC3)CC2)ccc1Nc1ncc(Cl)c(Nc2ccccc2S(=O)(=O)C(C)C)n1 + O=C(Oc1ccc([N+](=O)[O-])cc1)N1CCC(C(O)(c2ccc3c(c2)OCO3)c2ccc3c(c2)OCO3)CC1 [JZL184] (first compound 0.08 µM, partner dose 1 µM) | 32.8 | 63.6 | 117 | 154 | 103 | 93.1 |
| Cn1cc(C2=C(c3cn(C4CCN(Cc5ccccn5)CC4)c4ccccc34)C(=O)NC2=O)c2ccccc21 [Enzastaurin] + COc1ccc(C2=N[C@@H](c3ccc(Cl)cc3)[C@@H](c3ccc(Cl)cc3)N2C(=O)N2CCNC(=O)C2)c(OC(C)C)c1 [Nutlin-3] (first compound 0.8 µM, partner dose 0.1 µM) | 65.7 | 54.1 | 94.5 | 18.5 | 82.6 | 77.9 |
| Cc1cc(Nc2cc(N3CCN(C)CC3)nc(Sc3ccc(NC(=O)C4CC4)cc3)n2)n[nH]1 [Tozasertib] + O=C(Oc1ccc([N+](=O)[O-])cc1)N1CCC(C(O)(c2ccc3c(c2)OCO3)c2ccc3c(c2)OCO3)CC1 [JZL184] (first compound 0.006 µM, partner dose 1 µM) | 179 | 62.2 | 105 | 90.3 | 87 | 38.4 |
| O=C(/C=C/c1cccnc1)NCCCCC1CCN(C(=O)c2ccccc2)CC1 + Cc1cc(SCc2sc(-c3ccc(C(F)(F)F)c(F)c3)nc2C)ccc1OCC(=O)O [GW0742] (first compound 0.01 µM, partner dose 2 µM) | 106 | 108 | 92.8 | 66.3 | 101 | 44.5 |
| C[C@]12O[C@H](C[C@]1(O)CO)n1c3ccccc3c3c4c(c5c6ccccc6n2c5c31)CNC4=O [Lestaurtinib] + CCCCCCCCCCCC1=C(O)C(=O)C=C(O)C1=O [Embelin] (first compound 0.004 µM, partner dose 1.2 µM) | 25.6 | 45.6 | 91.6 | 133 | 120 | 141 |
| O=C(/C=C/c1cccnc1)NCCCCC1CCN(C(=O)c2ccccc2)CC1 + Cn1cc(C2=C(c3cn(C4CCN(Cc5ccccn5)CC4)c4ccccc34)C(=O)NC2=O)c2ccccc21 [Enzastaurin] (first compound 0.01 µM, partner dose 0.8 µM) | 65.8 | 36.4 | 93.3 | 48.3 | 101 | 70.8 |
| Cn1cc(C2=C(c3cn(C4CCN(Cc5ccccn5)CC4)c4ccccc34)C(=O)NC2=O)c2ccccc21 [Enzastaurin] + Cc1nc(Nc2ncc(C(=O)Nc3c(C)cccc3Cl)s2)cc(N2CCN(CCO)CC2)n1 [dasatanib] (first compound 0.8 µM, partner dose 0.004 µM) | 120 | 152 | 135 | 64.6 | 117 | 30.6 |
| C=CCNC1=C2C[C@@H](C)C[C@H](OC)[C@H](O)[C@@H](C)/C=C(\C)[C@H](OC(N)=O)[C@@H](OC)/C=C\C=C(/C)C(=O)NC(=CC1=O)C2=O [Tanespimycin] + C/C(O)=C(\C#N)C(=O)Nc1cc(Br)ccc1Br [LFM-A13] (first compound 0.002 µM, partner dose 2 µM) | 58.4 | 334 | 83.3 | 79 | 99.2 | 66 |
| CS(=O)(=O)CCNCc1ccc(-c2ccc3ncnc(Nc4ccc(OCc5cccc(F)c5)c(Cl)c4)c3c2)o1 [lapatinib] + C/C(O)=C(\C#N)C(=O)Nc1cc(Br)ccc1Br [LFM-A13] (first compound 0.8 µM, partner dose 2 µM) | 124 | 79 | 171 | 45.2 | 82.5 | 17 |
| CO[C@H]1C[C@@H]2CC[C@@H](C)[C@@](O)(O2)C(=O)C(=O)N2CCCC[C@H]2C(=O)O[C@H]([C@H](C)C[C@@H]2CC[C@@H](OCCO)[C@H](OC)C2)CC(=O)[C@H](C)/C=C(\C)[C@@H](O)[C@@H](OC)C(=O)[C@H](C)C[C@H](C)/C=C/C=C/C=C/1C [everolimus] + C/C(O)=C(\C#N)C(=O)Nc1cc(Br)ccc1Br [LFM-A13] (first compound 0.02 µM, partner dose 2 µM) | 210 | 175 | 107 | 103 | 127 | 84.6 |
| C[As](C)SC[C@H](NC(=O)CC[C@H](N)C(=O)O)C(=O)NCC(=O)O [Darinaparsin] + CC(C)CCN1c2nc(Nc3cc(F)c(O)c(F)c3)ncc2N(C)C(=O)C1C [BID1870] (first compound 0.4 µM, partner dose 0.2 µM) | 102 | 148 | 94.6 | 67 | 94.2 | 59.5 |
| Cc1cc(SCc2sc(-c3ccc(C(F)(F)F)c(F)c3)nc2C)ccc1OCC(=O)O + O=C(O)C(=O)Nc1sc2c(c1C(=O)O)CCNC2 [TCS401] (first compound 2 µM, partner dose 1.66667 µM) | 91 | 106 | 107 | 66 | 104 | 216 |
| C[C@]12O[C@H](C[C@]1(O)CO)n1c3ccccc3c3c4c(c5c6ccccc6n2c5c31)CNC4=O [Lestaurtinib] + CN(NC(=O)CC(=O)NN(C)C(=S)c1ccccc1)C(=S)c1ccccc1 [STA4783] (first compound 0.004 µM, partner dose 0.006 µM) | 124 | 106 | 105 | 68.6 | 90.6 | 53.5 |
| O=C(Oc1ccc([N+](=O)[O-])cc1)N1CCC(C(O)(c2ccc3c(c2)OCO3)c2ccc3c(c2)OCO3)CC1 + O=c1cc(-c2cccc3c2Sc2ccccc2S3)oc(N2CCOCC2)c1 [KU55933] (first compound 1 µM, partner dose 1 µM) | 58.1 | 102 | 94.5 | 101 | 93.7 | 83.7 |
| O=C(Oc1ccc([N+](=O)[O-])cc1)N1CCC(C(O)(c2ccc3c(c2)OCO3)c2ccc3c(c2)OCO3)CC1 + Cn1cc(/C=C2\C(=O)Nc3cccnc32)c2ccccc21 [GW441756] (first compound 1 µM, partner dose 0.4 µM) | 72.4 | 14.2 | 112 | 58.8 | 88 | 102 |
| Cc1nc(Nc2ncc(C(=O)Nc3c(C)cccc3Cl)s2)cc(N2CCN(CCO)CC2)n1 [dasatanib] + Cc1cc(SCc2sc(-c3ccc(C(F)(F)F)c(F)c3)nc2C)ccc1OCC(=O)O [GW0742] (first compound 0.004 µM, partner dose 2 µM) | 107 | 216 | 163 | 198 | 97.4 | 606 |
| COc1ccc(-c2ccc3c(N4CCOCC4)nc(N4C[C@@H](C)O[C@@H](C)C4)nc3n2)cc1CO + Cc1cc(SCc2sc(-c3ccc(C(F)(F)F)c(F)c3)nc2C)ccc1OCC(=O)O [GW0742] (first compound 0.02 µM, partner dose 2 µM) | 42.7 | 141 | 104 | 62.5 | 118 | 254 |
| N.N.[Cl][Pt][Cl] [cisplatin] + COc1cc2c(Oc3ccc4[nH]c(C)cc4c3F)ncnc2cc1OCCCN1CCCC1 [cediranib] (first compound 1.6 µM, partner dose 0.4 µM) | 84 | 128 | 158 | 41 | 82.8 | 29.9 |
| Cn1nnc2c(C(N)=O)ncn2c1=O [temozolomide] + C/C(O)=C(\C#N)C(=O)Nc1cc(Br)ccc1Br [LFM-A13] (first compound 2 µM, partner dose 2 µM) | 47.4 | 161 | 90.9 | 79.8 | 322 | 170 |
| CC(=O)c1c(C)c2cnc(Nc3ccc(N4CCNCC4)cn3)nc2n(C2CCCC2)c1=O [palbociclib] + O=C(Oc1ccc([N+](=O)[O-])cc1)N1CCC(C(O)(c2ccc3c(c2)OCO3)c2ccc3c(c2)OCO3)CC1 [JZL184] (first compound 0.04 µM, partner dose 1 µM) | 114 | 300 | 119 | 117 | 116 | 44.5 |
| CCCCCCCCCCCCCCCCCCOP(=O)([O-])OC1CC[N+](C)(C)CC1 [Perifosine] + Cc1cc(SCc2sc(-c3ccc(C(F)(F)F)c(F)c3)nc2C)ccc1OCC(=O)O [GW0742] (first compound 0.4 µM, partner dose 2 µM) | 65.7 | 117 | 104 | 160 | 96.9 | 104 |
| C[C@]12O[C@H](C[C@]1(O)CO)n1c3ccccc3c3c4c(c5c6ccccc6n2c5c31)CNC4=O [Lestaurtinib] + CC(C)C[C@H](NC(=O)[C@H](Cc1ccccc1)NC(=O)c1cnccn1)B(O)O [Bortezomib] (first compound 0.004 µM, partner dose 0.001 µM) | 175 | 175 | 207 | 57 | 162 | 148 |

A run of entries of the results above, for reference:

| Structure (SMILES) | cleaved PARP positive nuclei fraction (WM115) [%] | cleaved PARP positive nuclei fraction (WM1716) [%] | cleaved PARP positive nuclei fraction (WM1745) [%] | cleaved PARP positive nuclei fraction (WM3526) [%] | cleaved PARP positive nuclei fraction (WM3619) [%] | cleaved PARP positive nuclei fraction (WM451Lu) [%] |
| --- | --- | --- | --- | --- | --- | --- |
| C[C@]12O[C@H](C[C@]1(O)CO)n1c3ccccc3c3c4c(c5c6ccccc6n2c5c31)CNC4=O [Lestaurtinib] + CCCCCCCCCCCC1=C(O)C(=O)C=C(O)C1=O [Embelin] (first compound 0.004 µM, partner dose 1.2 µM) | 25.6 | 45.6 | 91.6 | 133 | 120 | 141 |
| O=C(/C=C/c1cccnc1)NCCCCC1CCN(C(=O)c2ccccc2)CC1 + Cn1cc(C2=C(c3cn(C4CCN(Cc5ccccn5)CC4)c4ccccc34)C(=O)NC2=O)c2ccccc21 [Enzastaurin] (first compound 0.01 µM, partner dose 0.8 µM) | 65.8 | 36.4 | 93.3 | 48.3 | 101 | 70.8 |
